Laboratory results taken from publication doi:10.1101/2025.10.10.681325.
Read-outs that look alike come from different tables or passages of the source. These are yes or no findings as the source states them, for the method shown. Binding seen in cells or lysates may run through a third protein. Some results given as binding are weak or reduced against the parent protein; the word gives no strength.

Experiments:
[1] = target: VapC12[F1,2], M-PFC bait fusion (M. tuberculosis) (UniProt P9WFA3); assay: split reporter
[2] = target: VapC12[F1,2], M-PFC bait fusion (M. tuberculosis) (UniProt P9WFA3); assay: split reporter; remark: listed apart in the source

VapB12[F3], M-PFC prey fusion (from UniProt P9WJ53 1-75)
binding [1]: binds | binding [2]: binds
